Test results reported in publication PMC6479836, “Interaction of Nerve Growth Factor β with Adiponectin and SPARC Oppositely Modulates its Biological Activity” (International Journal of Molecular Sciences, 2019).
No constants are given. Whether binding was seen depends on the method and setting.

Target: T1, Recombinant murine full-length adiponectin (murine) (UniProt Q60994)
T1 sequence: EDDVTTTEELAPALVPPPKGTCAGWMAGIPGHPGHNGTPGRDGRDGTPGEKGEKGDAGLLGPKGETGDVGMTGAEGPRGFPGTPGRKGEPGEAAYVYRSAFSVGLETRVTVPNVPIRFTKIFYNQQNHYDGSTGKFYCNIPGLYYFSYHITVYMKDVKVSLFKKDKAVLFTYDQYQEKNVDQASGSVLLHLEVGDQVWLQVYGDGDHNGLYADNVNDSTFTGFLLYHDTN
Assay: SPR; BIAcore X; full length adiponectin immobilised on CM5 chip; boiled (denatured) NGFβ as analyte; both purified

B1: Nerve growth factor β (NGFβ) from mouse submaxillary glands (ligand, UniProt P01139 122-241, looked up)
chain: SSTHPVFHMGEFSVCDSVSVWVGDKTTATDIKGKEVTVLAEVNINNSVFRQYFFETKCRASNPVESGCRGIDSKHWNSYCTTTHTFVKALTTDEKQAAWRFIRIDTACVCVLSRKATRRG
notes: beta-nerve growth factor, mouse, the beta chain from submaxillary glands; The same protein was also tested after boiling (denatured), as a control; source: from mouse submaxillary glands; bought: Alomone Labs
binding: no binding (condition: NGFβ denatured by boiling)
